No constants are given. Whether binding was seen depends on the method and setting. Binding can be weak; no strength is given.
Target: mouse interleukin 11 receptor alpha chain 1 (mouse) (UniProt Q64385)
Experiment: ELISA

Chains of the proteins cited; added tags and fusions are not shown. Lines headed by an entry give the natural chain unless they say otherwise; changes in a name come on top.
UniProt Q64385: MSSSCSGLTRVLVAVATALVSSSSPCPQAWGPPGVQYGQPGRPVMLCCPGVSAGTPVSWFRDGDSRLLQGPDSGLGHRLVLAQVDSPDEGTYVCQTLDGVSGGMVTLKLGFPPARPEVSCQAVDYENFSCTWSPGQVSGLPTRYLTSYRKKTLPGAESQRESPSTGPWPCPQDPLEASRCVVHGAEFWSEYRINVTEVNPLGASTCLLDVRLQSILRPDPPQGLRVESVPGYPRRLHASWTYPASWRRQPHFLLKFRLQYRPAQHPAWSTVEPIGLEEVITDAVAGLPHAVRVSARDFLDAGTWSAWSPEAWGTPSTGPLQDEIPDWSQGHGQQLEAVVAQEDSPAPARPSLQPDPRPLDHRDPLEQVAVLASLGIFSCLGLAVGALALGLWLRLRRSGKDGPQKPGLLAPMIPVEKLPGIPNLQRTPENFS

binding: binds
B1: biotinylated rmIL11 (ligand, UniProt P47873 22-199)
chain: PGPPAGSPRVSSDPRADLDSAVLLTRSLLADTRQLAAQMRDKFPADGDHSLDSLPTLAMSAGTLGSLQLPGVLTRLRVDLMSYLRHVQWLRRAGGPSLKTLEPELGALQARLERLLRRLQLLMSRLALPQAAPDQPVIPLGPPASAWGSIRAAHAILGGLHLTLDWAVRGLLLLKTRL
modifications: biotinylated (site not stated)

Source: paper doi:10.1101/830018 (bioRxiv, 2019)
